Results: patent US20080050387A1, “Non-Androgen Dependent Roles for Androgen Receptor and Non-Androgen Related Inhibitors of Androgen Receptor” (priority 2003, published 2008)
Results are given in words; binding and its absence hold for the method and conditions named. Binding can be weak; no strength is given.

The chains behind the UniProt entries cited, without tags or fusion partners. Where a name states a change or a piece, a line headed by the entry shows the natural chain unless it says otherwise.
UniProt P19793: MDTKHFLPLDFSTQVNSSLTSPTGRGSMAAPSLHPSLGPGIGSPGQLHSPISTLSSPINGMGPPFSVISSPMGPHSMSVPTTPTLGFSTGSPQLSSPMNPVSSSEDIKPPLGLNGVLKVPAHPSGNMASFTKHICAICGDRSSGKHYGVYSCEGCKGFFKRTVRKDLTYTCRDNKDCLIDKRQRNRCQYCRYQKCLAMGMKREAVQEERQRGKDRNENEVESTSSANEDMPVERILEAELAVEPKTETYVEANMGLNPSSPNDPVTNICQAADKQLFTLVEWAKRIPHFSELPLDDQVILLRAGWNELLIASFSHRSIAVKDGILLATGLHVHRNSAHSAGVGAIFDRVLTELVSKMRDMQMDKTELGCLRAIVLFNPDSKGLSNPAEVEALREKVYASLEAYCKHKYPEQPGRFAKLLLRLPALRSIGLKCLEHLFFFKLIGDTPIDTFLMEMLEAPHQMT

Target: T1, vitamin D receptor (VDR) (UniProt P11473)
T1 sequence: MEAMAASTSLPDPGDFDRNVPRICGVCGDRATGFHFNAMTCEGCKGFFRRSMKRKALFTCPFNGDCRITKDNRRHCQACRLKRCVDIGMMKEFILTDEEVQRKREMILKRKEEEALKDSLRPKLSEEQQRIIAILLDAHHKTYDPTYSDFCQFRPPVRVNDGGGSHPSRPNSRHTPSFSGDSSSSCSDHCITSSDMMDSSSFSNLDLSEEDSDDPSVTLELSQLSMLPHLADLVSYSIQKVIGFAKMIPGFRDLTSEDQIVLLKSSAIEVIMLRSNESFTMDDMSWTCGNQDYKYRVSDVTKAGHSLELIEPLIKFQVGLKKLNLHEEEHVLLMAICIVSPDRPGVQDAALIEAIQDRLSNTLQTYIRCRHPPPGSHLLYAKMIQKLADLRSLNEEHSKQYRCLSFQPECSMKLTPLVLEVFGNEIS
Assay: mammalian two-hybrid in PC-3 cells, GAL4-RXRα + VP16-VDR

RXRα (GAL4-RXRα) (from UniProt P19793) (receptor)
binding: binds
